Test results published in paper PMC11154707 (The Journal of Biological Chemistry, 2024).
HELM strings list residues between dots; [ac] is acetyl, [am] amide, other brackets name non-standard units.

Assay: general procedure: Fmoc solid-phase peptide synthesis; Rink Amide MBHA; HATU / N,N-diisopropylethylamine (2,4,6-collidine for Cys and chloroacetic acid)
Conditions: whole synthesis, scale 0.2 mmol, TFA salt

With “PEPTIDE1{[CH2CO].Y.[MeAla].N.P.H.L.[Hyp].W.S.[Trp(Me)].[MeNle].[MeNle].[Orn].C.G.[am]}$PEPTIDE1,PEPTIDE1,1:R3-15:R3$$$V2.0” as the substance, how does the isolated mass read?
The isolated mass was 70 mg.

And the isolated yield?
The isolated yield was 18%.
